Source: ChEMBL document CHEMBL3988442, “University of Dundee, Small-Polar-MMV Screening Library” (2021).

By UniProt entry, the sequences of proteins in these tests, tags left out. Residues count along the entry.
UniProt Q8IDJ8, 1-583: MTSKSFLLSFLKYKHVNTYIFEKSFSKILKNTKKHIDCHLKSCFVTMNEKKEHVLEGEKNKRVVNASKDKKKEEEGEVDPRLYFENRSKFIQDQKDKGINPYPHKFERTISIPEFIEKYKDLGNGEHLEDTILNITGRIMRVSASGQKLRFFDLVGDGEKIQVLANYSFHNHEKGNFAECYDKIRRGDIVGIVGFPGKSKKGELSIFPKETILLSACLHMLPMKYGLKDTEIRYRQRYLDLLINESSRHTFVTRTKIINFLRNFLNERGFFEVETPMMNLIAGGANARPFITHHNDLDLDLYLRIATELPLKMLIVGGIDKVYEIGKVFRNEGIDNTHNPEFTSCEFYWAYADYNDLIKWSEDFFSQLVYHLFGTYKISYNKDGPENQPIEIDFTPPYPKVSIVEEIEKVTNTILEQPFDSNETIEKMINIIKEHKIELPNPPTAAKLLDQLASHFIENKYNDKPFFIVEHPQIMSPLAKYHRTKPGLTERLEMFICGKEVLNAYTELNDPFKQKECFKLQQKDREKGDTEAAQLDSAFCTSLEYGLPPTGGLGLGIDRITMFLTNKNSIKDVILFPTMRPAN
UniProt P9WFT3, whole entry: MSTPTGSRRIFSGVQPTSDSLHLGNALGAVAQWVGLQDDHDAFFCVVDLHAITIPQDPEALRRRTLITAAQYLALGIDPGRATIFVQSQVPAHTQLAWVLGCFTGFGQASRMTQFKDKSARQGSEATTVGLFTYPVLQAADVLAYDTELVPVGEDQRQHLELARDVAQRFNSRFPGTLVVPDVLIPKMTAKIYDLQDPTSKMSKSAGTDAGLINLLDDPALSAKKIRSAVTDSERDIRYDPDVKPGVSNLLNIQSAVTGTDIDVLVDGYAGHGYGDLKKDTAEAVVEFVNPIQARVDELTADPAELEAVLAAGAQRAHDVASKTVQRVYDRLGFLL
UniProt P9WPC5, whole entry: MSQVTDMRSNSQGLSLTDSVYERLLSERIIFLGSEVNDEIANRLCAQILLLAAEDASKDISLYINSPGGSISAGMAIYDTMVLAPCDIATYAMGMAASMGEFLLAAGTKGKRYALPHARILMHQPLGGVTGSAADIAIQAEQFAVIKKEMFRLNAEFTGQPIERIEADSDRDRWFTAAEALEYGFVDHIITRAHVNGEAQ
UniProt P9WPC3, whole entry partner: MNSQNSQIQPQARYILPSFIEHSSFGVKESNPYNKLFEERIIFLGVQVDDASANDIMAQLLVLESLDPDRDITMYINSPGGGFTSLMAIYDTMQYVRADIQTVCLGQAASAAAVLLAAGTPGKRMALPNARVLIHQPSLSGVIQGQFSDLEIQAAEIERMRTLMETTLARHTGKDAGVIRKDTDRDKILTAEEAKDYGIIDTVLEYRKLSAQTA

PfKRS1: 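Enzyme assay of the cytosolic lysyl-tRNA synthetase in 384-well plates, read by luminescence. Target: Lysine-tRNA ligase, Plasmodium falciparum 3D7 (UniProt Q8IDJ8). Tested at 30 µM. Direction is inferred from only a few compounds that gave an IC50; most scored high, so higher reads as stronger inhibition. Size under these conditions: about 69,000 compounds, about 49 of them at 50% or above in at least one test.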
MtTrpRS: 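Enzyme assay of tryptophanyl-tRNA synthetase; the read-out is not stated. Target: Tryptophan-tRNA ligase, Mycobacterium tuberculosis (UniProt P9WFT3). Tested at 10 µM. Higher most likely means stronger inhibition; the record gives no direction and few retests gave an IC50. Of about 65,000 compounds tested this way, about 64 (0.098%) reached 50% or more in at least one test.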
ClpP1P2: 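Protease assay of ClpP1P2, read by the AMC dye that it sets free. Target: ClpP1P2, Mycobacterium tuberculosis (UniProt P9WPC5 and UniProt P9WPC3). Concentration: 50 µM. Higher reads as stronger inhibition, judged from the few compounds that gave an IC50. Most other retested compounds had strongly negative values. Of about 69,000 compounds tested this way, about 10 (0.015%) reached 50% or more in at least one test.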

Values are the deposited “Percent Effect”, in %. The controls that fix the scale are not given in the record; negative values are as filed. This is an unselected part of the compounds tested.

For Cc1cc(OCCC(=O)Nc2cccc(F)c2)nnc1C the result was PfKRS1: 7.662%; MtTrpRS: 2.245%; ClpP1P2: 2.587%. With Cc1nc(CN2CCCC23CCN(c2nc4ccccc4s2)CC3)co1 the screen gave PfKRS1: 4.251%; MtTrpRS: 1.852%; ClpP1P2: -6.229%. For Cc1cccc(CNc2cncc(-n3cccn3)n2)c1 the result was PfKRS1: 1.437%; MtTrpRS: -0.8704%; ClpP1P2: -53.74%. For CCCOc1ccc(C(=O)Oc2cc(=O)n3cccc(C)c3n2)cc1 the result was PfKRS1: 6.119%; MtTrpRS: 2.522%; ClpP1P2: -6.368%. CCNS(=O)(=O)c1cnccc1N1CCN(CCO)CC1 read PfKRS1: 3.037%; MtTrpRS: 0.7897%; ClpP1P2: -11%. Cc1cnc(CN2CCN(C(C)c3nc(C4CC4)no3)CC2)cn1 (configuration not stated) gave PfKRS1: 4.948%; MtTrpRS: -4.461%; ClpP1P2: 10.1%. For N#Cc1ccccc1CN1C[C@@H]2CC[C@H](C1)N(Cc1cscn1)C2=O the result was PfKRS1: 2.313%; MtTrpRS: 0.6966%; ClpP1P2: -12.13%.

N#Cc1cccnc1N1CCC(OCCc2ccccc2)CC1 gave PfKRS1: -0.06894%; MtTrpRS: -2.177%; ClpP1P2: -46.42%. CC1CCc2nc(O)c(C(=O)NCCCN3CCN(C)CC3)cc2C1 (configuration not stated) read PfKRS1: 5.275%; MtTrpRS: -3.99%; ClpP1P2: 5.836%. With Cc1nn(C)c(Cl)c1C1CCCN1C(=O)c1cc(Cl)c[nH]1 (configuration not stated) the screen gave PfKRS1: 3.371%; MtTrpRS: -1.017%; ClpP1P2: 3.504%. CCC(C)NC(=O)c1sccc1-n1cnnn1 (configuration not stated) read PfKRS1: -5.258%; MtTrpRS: -2.067%; ClpP1P2: -0.2834%. For CS(=O)(=O)NCCC(=O)NCc1cccnc1-n1cnc2ccccc21 the result was PfKRS1: 14.82%; MtTrpRS: -5.589%; ClpP1P2: 2.859%. CCN1CCC2(CN(C(C)=O)CC23CCN(C(=O)N(C)C)CC3)C1=O (configuration not stated) gave PfKRS1: 3.304%; MtTrpRS: 3.961%; ClpP1P2: -16.01%. With Cc1cc(CN2CCc3nn(C)c(=O)cc3C2)on1 the screen gave PfKRS1: 19.62%; MtTrpRS: 11%; ClpP1P2: -7.74%.

Cc1csc(CCNC(=O)NC(C)Cn2cccn2)n1 (configuration not stated) read PfKRS1: -0.9886%; MtTrpRS: 4.782%; ClpP1P2: 1.11%. Result for COCC(=O)NC[C@H]1C[C@@H]2CCN1C[C@@H]2CN1CCc2ccccc2C1 was PfKRS1: 3.17%; MtTrpRS: -2.212%; ClpP1P2: -5.54%. Cc1nc(CN2C(=O)CC[C@@H]3[C@H]2CCN3C2CCOC2)cs1 (some centres not stated) gave PfKRS1: 1.709%; MtTrpRS: 2.061%; ClpP1P2: 9.034%. CN(Cc1nnc(C2CC2)n1C)S(=O)(=O)c1ccccc1C#N gave PfKRS1: -0.9124%; MtTrpRS: 0.06817%; ClpP1P2: -11.17%. Result for Cc1ccc2c(c1)OC(C)(C)CC2NC(=O)C1CCN(S(C)(=O)=O)CC1 (configuration not stated) was PfKRS1: 1.133%; MtTrpRS: -0.7692%; ClpP1P2: -6.582%. With CN1C[C@@H]2COC[C@]2(C(=O)NCCc2cccs2)C1 the screen gave PfKRS1: -3.012%; MtTrpRS: -9.197%; ClpP1P2: -5.668%. Result for CCn1nc(C)c2c1cnn2CC(=O)N1CCN(C)CC1 was PfKRS1: 0.4816%; MtTrpRS: -0.3285%; ClpP1P2: -1.019%.

CC(=O)N(C)C1CCCc2nc(C)sc21 (configuration not stated) read PfKRS1: 7.832%; MtTrpRS: -0.5202%; ClpP1P2: 17.13%. CN1CC(C(=O)NCc2cccnc2OCc2ccccc2)CC1=O (configuration not stated) gave PfKRS1: 5.315%; MtTrpRS: -0.07788%; ClpP1P2: -4.467%. CN1CCC(N(CCc2ccccc2)C(=O)c2ccc(CO)cc2)CC1 gave PfKRS1: -0.2987%; MtTrpRS: -1.711%; ClpP1P2: -14.76%. With N#Cc1cn(CCCN2CCc3ccccc3C2)c(=O)[nH]c1=O the screen gave PfKRS1: 11.09%; MtTrpRS: -6.795%; ClpP1P2: 6.143%. Result for CCS(=O)(=O)NCC(=O)N(C1CC1)C1Cc2ccccc2C1 was PfKRS1: 4.348%; MtTrpRS: 2.545%; ClpP1P2: -3.734%. Cc1cc(C)n2nc(CC(=O)N3CC[C@H]4NCCC[C@]4(CO)C3)nc2n1 gave PfKRS1: 0.2504%; MtTrpRS: -1.41%; ClpP1P2: -4.657%. For Cc1cc(C(=O)NCc2ccnc(N3CCN(C)CC3)c2)no1 the result was PfKRS1: 2.588%; MtTrpRS: -4.16%; ClpP1P2: -23.95%.

With COc1ccc2c(c1)CCCN(CC(=O)NCC1CCCO1)C2 (configuration not stated) the screen gave PfKRS1: 2.285%; MtTrpRS: 2.574%; ClpP1P2: 9.236%. Result for CCc1nc(CN(C)C2CCN(CCNS(=O)(=O)CC)C2)no1 (configuration not stated) was PfKRS1: -1.759%; MtTrpRS: -2.28%; ClpP1P2: 6.789%. COC[C@@]12CCO[C@@H]1CCN(C(=O)C1CCSCC1)C2 read PfKRS1: 9.91%; MtTrpRS: -6.46%; ClpP1P2: -5.486%. For CN(C(=O)C1CCCCC1)[C@@H]1CCC[C@@H](N2CCOCC2)[C@@H]1O the result was PfKRS1: 2.894%; MtTrpRS: 3.93%; ClpP1P2: -0.8895%.

4 of the entries, repeated:

{"structure": "Cc1cc(C)n2nc(CC(=O)N3CC[C@H]4NCCC[C@]4(CO)C3)nc2n1", "PfKRS1": 0.2504, "MtTrpRS": -1.41, "ClpP1P2": -4.657}
{"structure": "Cc1nc(CN2C(=O)CC[C@@H]3[C@H]2CCN3C2CCOC2)cs1", "stereo": "some centres not stated", "PfKRS1": 1.709, "MtTrpRS": 2.061, "ClpP1P2": 9.034}
{"structure": "CCc1nc(CN(C)C2CCN(CCNS(=O)(=O)CC)C2)no1", "stereo": "configuration not stated", "PfKRS1": -1.759, "MtTrpRS": -2.28, "ClpP1P2": 6.789}
{"structure": "CS(=O)(=O)NCCC(=O)NCc1cccnc1-n1cnc2ccccc21", "PfKRS1": 14.82, "MtTrpRS": -5.589, "ClpP1P2": 2.859}